In patent publication US20260263518A1:
These are yes or no findings as the source states them, for the method shown. Some entries that bind do so weakly or less than the wild type.

The chains behind the UniProt entries cited, without tags or fusion partners.
UniProt O75643: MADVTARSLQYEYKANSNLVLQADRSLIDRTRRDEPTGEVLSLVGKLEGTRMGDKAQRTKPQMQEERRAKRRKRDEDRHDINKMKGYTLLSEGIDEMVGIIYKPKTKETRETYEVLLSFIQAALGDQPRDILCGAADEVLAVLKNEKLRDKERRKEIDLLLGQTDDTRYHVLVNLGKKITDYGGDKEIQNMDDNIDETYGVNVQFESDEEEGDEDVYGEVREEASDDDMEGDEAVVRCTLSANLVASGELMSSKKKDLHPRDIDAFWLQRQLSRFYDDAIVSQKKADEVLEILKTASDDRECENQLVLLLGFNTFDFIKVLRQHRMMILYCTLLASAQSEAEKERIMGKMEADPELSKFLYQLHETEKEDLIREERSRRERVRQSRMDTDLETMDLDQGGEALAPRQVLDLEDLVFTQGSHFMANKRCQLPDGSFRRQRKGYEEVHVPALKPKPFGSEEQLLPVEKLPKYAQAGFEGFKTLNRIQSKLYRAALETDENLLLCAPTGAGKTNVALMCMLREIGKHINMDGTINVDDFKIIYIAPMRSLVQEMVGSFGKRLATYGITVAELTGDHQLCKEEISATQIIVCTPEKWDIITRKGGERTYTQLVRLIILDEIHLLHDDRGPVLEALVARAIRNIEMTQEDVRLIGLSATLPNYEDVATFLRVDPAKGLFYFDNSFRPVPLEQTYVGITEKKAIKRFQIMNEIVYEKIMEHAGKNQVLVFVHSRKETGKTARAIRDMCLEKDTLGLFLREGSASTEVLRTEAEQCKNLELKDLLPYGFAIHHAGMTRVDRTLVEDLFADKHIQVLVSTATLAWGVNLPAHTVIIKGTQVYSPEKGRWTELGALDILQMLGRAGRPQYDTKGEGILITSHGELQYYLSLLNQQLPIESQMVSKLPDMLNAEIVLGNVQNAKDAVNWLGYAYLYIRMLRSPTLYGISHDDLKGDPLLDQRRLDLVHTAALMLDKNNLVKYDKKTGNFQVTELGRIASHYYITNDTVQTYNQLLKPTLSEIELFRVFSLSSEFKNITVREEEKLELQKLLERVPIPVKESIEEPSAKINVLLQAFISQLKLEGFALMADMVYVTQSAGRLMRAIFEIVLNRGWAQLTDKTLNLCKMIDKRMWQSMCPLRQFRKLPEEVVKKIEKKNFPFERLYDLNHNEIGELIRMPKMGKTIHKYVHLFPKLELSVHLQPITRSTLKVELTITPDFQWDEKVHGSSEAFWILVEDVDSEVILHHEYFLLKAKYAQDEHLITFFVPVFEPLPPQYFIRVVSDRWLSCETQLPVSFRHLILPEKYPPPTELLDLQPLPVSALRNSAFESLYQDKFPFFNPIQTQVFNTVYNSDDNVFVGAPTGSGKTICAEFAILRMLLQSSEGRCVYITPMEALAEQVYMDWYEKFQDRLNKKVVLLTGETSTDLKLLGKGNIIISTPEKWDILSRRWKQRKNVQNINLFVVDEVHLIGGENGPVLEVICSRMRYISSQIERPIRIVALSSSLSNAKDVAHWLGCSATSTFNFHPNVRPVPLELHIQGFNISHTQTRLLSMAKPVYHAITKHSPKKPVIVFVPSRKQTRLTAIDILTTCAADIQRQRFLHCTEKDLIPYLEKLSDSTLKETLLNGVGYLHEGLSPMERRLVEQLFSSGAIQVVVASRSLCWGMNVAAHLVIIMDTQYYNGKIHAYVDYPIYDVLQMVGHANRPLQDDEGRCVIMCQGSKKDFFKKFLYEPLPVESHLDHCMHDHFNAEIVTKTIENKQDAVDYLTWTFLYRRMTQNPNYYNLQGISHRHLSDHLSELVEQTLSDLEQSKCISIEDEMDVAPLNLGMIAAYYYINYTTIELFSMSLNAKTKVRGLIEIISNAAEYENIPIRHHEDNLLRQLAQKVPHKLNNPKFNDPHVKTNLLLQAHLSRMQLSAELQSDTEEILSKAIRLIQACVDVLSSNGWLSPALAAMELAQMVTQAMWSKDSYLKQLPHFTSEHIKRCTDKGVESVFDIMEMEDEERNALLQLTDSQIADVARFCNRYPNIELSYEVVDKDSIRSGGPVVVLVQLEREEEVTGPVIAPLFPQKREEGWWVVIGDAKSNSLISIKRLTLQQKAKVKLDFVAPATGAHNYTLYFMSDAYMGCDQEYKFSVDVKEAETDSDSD

B1: anti-U5 snRNP200 antibody clone 23 (antibody, V domains shown)
VH: QVQLQQWGAGLLKPSETLSLTCAVYGGSFSGYYWSWIRQPPGKGLEWIGEINHSGSTNYNPSLKSRVTISVDTSKNQFSLKLSSVTAADTAVYYCARGRSTSPLDYYYYYMDVWAKGTTVTVS
VL: SSELTQDPAVSVALGQTVRITCQGDFLRSYYASWYQQKPGQAPVLVIFGKNKRPSGIPDRFSGSSSGNTASLTITGAQAEDEADYYCNSRDRSGNHLVFGGGTKLTVL
B2: anti-U5 snRNP200 antibody clone 37 (antibody, V domains shown)
VH: QVQLVESGGGVVQPGRSLRLSCAASGFTFSTYGMHWVRQAPGKGLEWVAVIWYDGSNTYYADSVKGRFTISRDNSKNTLYLQIKSLRAEDTAVYYCARGRGYSAQGNRNRAYYFDYWGQGTLVTVS
VL: EIVMTQSPATLSVSPGERVILSCRASQSVSSNLAWYQQKPGQPPRLLIYGAFTRVTGVPARFSGSGSGTEFTLTISSLQSEDFAVYYCQQYNDRPPYTFGQGTKLEIKR

Assays:
[1] = target: U5 snRNP200 (human) (UniProt O75643); test: flow cytometry, PE-conjugated antibody on AML cell lines
[2] = target: U5 snRNP200 (human) (UniProt O75643); test: flow cytometry, PE-conjugated antibody on primary AML cells

| Binder | binding [1] | binding [2] |
| --- | --- | --- |
| B1 | binds | binds |
| B2 | binds | binds |
